Results reported in publication PMC10526732.
Results are given in words; binding and its absence hold for the method and conditions named. In cells and extracts the contact can be indirect. Binding calls can cover weak binding; strength is not graded here.

T1: SNW1 (SNW domain containing 1) (human (endogenous in HPMEC-Im)) (UniProt Q13573)
T1 sequence: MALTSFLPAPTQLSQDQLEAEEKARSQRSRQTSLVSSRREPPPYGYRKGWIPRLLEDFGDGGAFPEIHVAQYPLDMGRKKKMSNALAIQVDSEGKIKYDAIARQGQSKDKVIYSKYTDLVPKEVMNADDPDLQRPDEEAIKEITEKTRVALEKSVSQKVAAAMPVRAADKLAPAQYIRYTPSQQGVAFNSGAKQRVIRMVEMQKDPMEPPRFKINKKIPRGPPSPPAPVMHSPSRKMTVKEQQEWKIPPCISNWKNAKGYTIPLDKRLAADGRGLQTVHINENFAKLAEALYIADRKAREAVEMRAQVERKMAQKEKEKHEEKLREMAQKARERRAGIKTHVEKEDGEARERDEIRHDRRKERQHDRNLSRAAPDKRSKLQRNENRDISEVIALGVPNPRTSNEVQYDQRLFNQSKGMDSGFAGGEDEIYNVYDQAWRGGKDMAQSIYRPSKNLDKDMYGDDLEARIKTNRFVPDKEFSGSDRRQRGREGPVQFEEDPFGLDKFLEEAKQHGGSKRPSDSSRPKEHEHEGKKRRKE

B1: SNW1 (SNW domain containing 1) (protein, UniProt Q13573 1-536)
chain: MALTSFLPAPTQLSQDQLEAEEKARSQRSRQTSLVSSRREPPPYGYRKGWIPRLLEDFGDGGAFPEIHVAQYPLDMGRKKKMSNALAIQVDSEGKIKYDAIARQGQSKDKVIYSKYTDLVPKEVMNADDPDLQRPDEEAIKEITEKTRVALEKSVSQKVAAAMPVRAADKLAPAQYIRYTPSQQGVAFNSGAKQRVIRMVEMQKDPMEPPRFKINKKIPRGPPSPPAPVMHSPSRKMTVKEQQEWKIPPCISNWKNAKGYTIPLDKRLAADGRGLQTVHINENFAKLAEALYIADRKAREAVEMRAQVERKMAQKEKEKHEEKLREMAQKARERRAGIKTHVEKEDGEARERDEIRHDRRKERQHDRNLSRAAPDKRSKLQRNENRDISEVIALGVPNPRTSNEVQYDQRLFNQSKGMDSGFAGGEDEIYNVYDQAWRGGKDMAQSIYRPSKNLDKDMYGDDLEARIKTNRFVPDKEFSGSDRRQRGREGPVQFEEDPFGLDKFLEEAKQHGGSKRPSDSSRPKEHEHEGKKRRKE

Experiments:
[1] = target: T1, SNW1 (SNW domain containing 1) (human (endogenous in HPMEC-Im)); test: co-IP; IP with SNW1 antibody on protein A/G magnetic beads from 500 ug HPMEC-Im lysate, blotted for NICD; cells with sc shRNA or HDAC6 shRNA, with or without VEGF 50 ng/mL (45 min in the legend, 60 min in the methods)
[2] = target: Notch intracellular domain (NICD) (human (endogenous in HPMEC-Im)); test: co-IP; IP with NICD antibody on protein A/G magnetic beads from 500 ug HPMEC-Im lysate, blotted for HDAC6 or SNW1; cells with sc shRNA or HDAC6 shRNA, with or without VEGF 50 ng/mL (45 min in the legend, 60 min in the methods)

Row | Molecule | binding [1] | binding [2]
1 | Notch intracellular domain (NICD) (human (endogenous in HPMEC-Im)) (domain or fragment) | binds | –
2 | B1 | – | binds
